Where “and” joins values, the source holds several entries; their conditions need not be identical. Identical values can stand only once.
Test: DPA residue on apples by gas chromatography after aerosol application of molten DPA (Example 1)
Parameters: species or system apples (Granny Smith, Red Delicious)
[1] = Red Delicious, cold air storage

With `c1ccc(Nc2ccccc2)cc1` [DPA, diphenylamine] the “DPA RESIDUE 8.5 Weeks” value (Granny Smith, cold air storage) was 1.9 PPM and 2.8 PPM and 2.7 PPM and 2.6 PPM, the “DPA RESIDUE 14 Weeks” value (Granny Smith, cold air storage) was 0.8 PPM and 1.0 PPM and 1.1 PPM and 0.9 PPM and the “DPA RESIDUE 18 Weeks” value (Granny Smith, cold air storage) was 0.6 PPM and 0.7 PPM and 0.5 PPM. For the same compound, the “DPA RESIDUE 20 weeks” value (Granny Smith, 20 weeks, cold air storage) was 0.6 PPM and 0.8 PPM and 0.5 PPM, the “DPA RESIDUE 8.5 Weeks” value [1] was 4.4 PPM and 4.2 PPM and 3.4 PPM and 3.6 PPM and the “DPA RESIDUE 14 Weeks” value [1] was 2.5 PPM and 3.1 PPM and 2.3 PPM and 2.8 PPM. The “DPA RESIDUE 16 Hours” value (Red Delicious, 16 Hours after application, Table 2) was 1.1 PPM and 1.3 PPM and 1.0 PPM and 1.2 PPM and the “DPA RESIDUE 18 Weeks” value [1] was 1.3 PPM and 1.9 PPM and 1.2 PPM and 1.6 PPM.
